Experimental data taken from patent publication US8552059B2, “Treatment of ischemic episodes and cerebroprotection through misoprostol” (The Board of Trustees of the Leland Stanford Junior …, priority 2009, dated 2013).
For at least one compound, name, drawing or mass did not settle the structure.

Columns and labels:
[1] = tested on: murine middle cerebral artery occlusion-reperfusion (MCAO-RP) model of transient focal ischemia; test: Middle cerebral artery occlusion-reperfusion (MCAO-RP), 90 min MCAO, misoprostol; type: in vivo, mouse; settings: 24 h, p<0.05
[2] = tested on: primary cortical or hippocampal neurons; test: Primary cortical or hippocampal neurons stimulated with glutamate; type: cell-based; settings: glutamate 50 μM; data not shown

CCCCC(C)(O)C/C=C/[C@H]1[C@H](O)CC(=O)[C@@H]1CCCCCCC(=O)OC (mixture of isomers) [misoprostol]
Infarct volume (cerebral cortex, striatum, hemisphere) ([1]; 1 mg/kg s.c. 2 h after MCAO, then 8 and 14 h): significant rescue in cerebral cortex, striatum and hemisphere | Infarct volume (cerebral cortex, caudate-putamen, hemisphere) ([1]; 1 mg/kg s.c. at onset of MCAO, then 6 and 12 h): significant rescue of tissue | Rescue of neurons stimulated with glutamate [2]: did not rescue
